Data as given in article doi:10.1101/2020.10.08.331538 (bioRxiv, 2020).
Where two headings read alike, the source gives them in different places. Results are given in words; binding and its absence hold for the method and conditions named.

Sequences of proteins named here, by UniProt entry; tags and fusion partners are left off. A change or cut given only in a name is not applied to a line headed by its entry.
UniProt Q8IL11, whole entry, looked up, stated change not applied: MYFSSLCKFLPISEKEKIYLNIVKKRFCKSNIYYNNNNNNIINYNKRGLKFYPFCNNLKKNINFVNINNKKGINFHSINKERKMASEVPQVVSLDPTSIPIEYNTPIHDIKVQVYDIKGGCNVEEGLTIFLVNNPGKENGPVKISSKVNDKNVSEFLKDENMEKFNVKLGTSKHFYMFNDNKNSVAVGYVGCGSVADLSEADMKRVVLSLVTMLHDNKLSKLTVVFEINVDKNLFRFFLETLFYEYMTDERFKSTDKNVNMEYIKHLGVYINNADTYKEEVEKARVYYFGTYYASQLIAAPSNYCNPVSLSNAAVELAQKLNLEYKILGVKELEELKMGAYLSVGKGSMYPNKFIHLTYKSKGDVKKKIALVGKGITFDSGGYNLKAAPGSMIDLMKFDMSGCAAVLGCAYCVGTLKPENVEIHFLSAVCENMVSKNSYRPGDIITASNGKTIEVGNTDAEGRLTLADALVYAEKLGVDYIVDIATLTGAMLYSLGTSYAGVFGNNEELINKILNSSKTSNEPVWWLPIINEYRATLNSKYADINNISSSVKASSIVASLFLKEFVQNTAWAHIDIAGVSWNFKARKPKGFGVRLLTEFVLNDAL

Key:
[1] = target: PfA-M17 (W525A + Y533A) (Plasmodium falciparum) (UniProt Q8IL11); assay: AUC
[2] = target: PfA-M17 (W525A + Y533A) (Plasmodium falciparum) (UniProt Q8IL11); assay: AUC; remark: listed apart in the source

## PfA-M17 (W525A + Y533A) (from UniProt Q8IL11 84-605) (enzyme)
[1]
  binding: no binding (tested: 8.3 µM and 4.2 µM)
[2]
  binding: no binding (tested: 0.5 mg/mL)
